The supplement of paper PMC12819154, “High-throughput peptide-centric local stability assay extends protein–ligand identification to membrane proteins, tissues and bacteria” (Nature Structural & Molecular Biology, 2025)
The list shows a part of the results. Most entries show no effect beyond the scatter of the controls.

Chains of the proteins cited; added tags and fusions are not shown. Lines headed by an entry give the natural chain unless they say otherwise; changes in a name come on top.
UniProt P12382: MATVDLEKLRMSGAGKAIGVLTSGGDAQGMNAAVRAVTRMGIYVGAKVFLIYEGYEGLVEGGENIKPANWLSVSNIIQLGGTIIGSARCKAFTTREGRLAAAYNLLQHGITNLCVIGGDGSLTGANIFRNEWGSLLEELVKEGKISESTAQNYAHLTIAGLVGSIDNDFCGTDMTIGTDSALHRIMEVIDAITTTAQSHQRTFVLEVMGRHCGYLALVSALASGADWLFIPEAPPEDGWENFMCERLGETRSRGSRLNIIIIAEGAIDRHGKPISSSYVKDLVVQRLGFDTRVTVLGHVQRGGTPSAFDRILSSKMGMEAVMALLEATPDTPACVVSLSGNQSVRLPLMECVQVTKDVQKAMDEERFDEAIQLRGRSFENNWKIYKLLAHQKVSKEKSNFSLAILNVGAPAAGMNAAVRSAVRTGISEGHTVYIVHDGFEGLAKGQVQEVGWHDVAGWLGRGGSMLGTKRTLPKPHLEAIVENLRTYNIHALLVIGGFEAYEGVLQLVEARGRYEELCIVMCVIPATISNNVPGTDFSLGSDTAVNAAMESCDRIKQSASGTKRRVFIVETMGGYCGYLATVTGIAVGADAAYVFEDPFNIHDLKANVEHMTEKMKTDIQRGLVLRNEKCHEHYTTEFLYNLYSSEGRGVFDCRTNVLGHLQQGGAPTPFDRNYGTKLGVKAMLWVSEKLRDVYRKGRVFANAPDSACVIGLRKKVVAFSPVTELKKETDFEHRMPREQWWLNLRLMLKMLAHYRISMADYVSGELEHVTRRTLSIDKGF
UniProt P08071: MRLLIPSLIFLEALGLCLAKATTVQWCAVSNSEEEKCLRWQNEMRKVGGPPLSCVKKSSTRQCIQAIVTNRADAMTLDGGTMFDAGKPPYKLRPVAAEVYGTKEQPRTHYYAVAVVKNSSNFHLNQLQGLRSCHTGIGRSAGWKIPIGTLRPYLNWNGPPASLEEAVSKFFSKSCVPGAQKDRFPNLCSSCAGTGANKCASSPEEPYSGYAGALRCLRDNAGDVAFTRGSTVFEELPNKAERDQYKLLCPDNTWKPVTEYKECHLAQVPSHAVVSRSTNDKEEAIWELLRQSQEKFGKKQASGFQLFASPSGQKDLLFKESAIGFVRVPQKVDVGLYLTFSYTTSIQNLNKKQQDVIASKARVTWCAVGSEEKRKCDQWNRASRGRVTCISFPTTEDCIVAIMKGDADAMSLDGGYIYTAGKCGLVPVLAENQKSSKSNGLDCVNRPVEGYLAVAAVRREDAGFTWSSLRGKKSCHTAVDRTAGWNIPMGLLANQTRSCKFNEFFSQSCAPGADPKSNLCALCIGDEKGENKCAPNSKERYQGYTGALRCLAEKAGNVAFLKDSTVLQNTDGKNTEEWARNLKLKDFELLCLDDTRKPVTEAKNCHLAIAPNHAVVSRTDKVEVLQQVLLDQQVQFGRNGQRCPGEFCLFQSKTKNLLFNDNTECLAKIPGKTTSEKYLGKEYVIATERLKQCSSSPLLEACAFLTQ
UniProt P08122: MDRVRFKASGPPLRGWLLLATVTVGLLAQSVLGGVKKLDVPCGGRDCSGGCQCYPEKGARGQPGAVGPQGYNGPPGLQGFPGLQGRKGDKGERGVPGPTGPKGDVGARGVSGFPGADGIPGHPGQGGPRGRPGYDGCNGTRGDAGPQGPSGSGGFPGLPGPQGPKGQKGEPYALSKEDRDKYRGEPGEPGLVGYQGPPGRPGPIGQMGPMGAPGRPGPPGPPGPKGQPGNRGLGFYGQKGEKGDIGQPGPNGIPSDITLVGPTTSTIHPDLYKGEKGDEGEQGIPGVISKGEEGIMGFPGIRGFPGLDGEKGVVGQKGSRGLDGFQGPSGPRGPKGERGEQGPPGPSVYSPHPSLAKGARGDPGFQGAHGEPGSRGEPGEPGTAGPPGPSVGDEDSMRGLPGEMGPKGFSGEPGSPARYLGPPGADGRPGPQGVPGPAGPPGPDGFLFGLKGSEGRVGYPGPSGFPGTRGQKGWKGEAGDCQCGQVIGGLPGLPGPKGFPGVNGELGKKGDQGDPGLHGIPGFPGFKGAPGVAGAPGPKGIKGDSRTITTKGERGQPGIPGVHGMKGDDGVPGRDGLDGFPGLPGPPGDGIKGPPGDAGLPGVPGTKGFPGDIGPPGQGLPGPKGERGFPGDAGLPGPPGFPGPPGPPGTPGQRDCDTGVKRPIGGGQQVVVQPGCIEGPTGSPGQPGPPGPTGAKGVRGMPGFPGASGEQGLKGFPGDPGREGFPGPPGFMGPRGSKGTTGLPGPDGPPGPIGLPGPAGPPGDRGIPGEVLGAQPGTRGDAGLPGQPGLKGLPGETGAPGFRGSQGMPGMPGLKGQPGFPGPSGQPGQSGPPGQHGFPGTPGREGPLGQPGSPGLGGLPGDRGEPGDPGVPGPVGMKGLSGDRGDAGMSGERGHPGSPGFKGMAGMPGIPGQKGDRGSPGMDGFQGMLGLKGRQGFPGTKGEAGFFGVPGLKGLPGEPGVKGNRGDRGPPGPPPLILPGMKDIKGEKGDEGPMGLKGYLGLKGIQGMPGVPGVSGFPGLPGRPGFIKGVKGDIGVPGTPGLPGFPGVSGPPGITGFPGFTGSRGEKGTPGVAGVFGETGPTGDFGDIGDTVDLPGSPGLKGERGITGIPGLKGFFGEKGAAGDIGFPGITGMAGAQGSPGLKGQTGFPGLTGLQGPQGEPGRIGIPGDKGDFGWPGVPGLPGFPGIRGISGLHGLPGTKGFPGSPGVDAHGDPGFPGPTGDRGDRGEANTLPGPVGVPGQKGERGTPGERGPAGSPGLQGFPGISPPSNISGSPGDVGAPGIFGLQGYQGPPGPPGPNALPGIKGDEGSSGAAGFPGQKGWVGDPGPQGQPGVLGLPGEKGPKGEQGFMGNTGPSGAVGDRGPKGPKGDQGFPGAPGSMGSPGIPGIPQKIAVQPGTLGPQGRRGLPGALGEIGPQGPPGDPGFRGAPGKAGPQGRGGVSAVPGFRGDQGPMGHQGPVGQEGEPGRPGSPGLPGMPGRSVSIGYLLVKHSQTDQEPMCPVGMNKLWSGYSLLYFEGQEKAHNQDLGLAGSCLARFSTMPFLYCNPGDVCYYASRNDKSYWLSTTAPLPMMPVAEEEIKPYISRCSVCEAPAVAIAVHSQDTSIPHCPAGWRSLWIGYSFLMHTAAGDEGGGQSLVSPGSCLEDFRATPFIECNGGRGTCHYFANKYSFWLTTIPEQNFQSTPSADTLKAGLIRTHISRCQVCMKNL
UniProt P04441: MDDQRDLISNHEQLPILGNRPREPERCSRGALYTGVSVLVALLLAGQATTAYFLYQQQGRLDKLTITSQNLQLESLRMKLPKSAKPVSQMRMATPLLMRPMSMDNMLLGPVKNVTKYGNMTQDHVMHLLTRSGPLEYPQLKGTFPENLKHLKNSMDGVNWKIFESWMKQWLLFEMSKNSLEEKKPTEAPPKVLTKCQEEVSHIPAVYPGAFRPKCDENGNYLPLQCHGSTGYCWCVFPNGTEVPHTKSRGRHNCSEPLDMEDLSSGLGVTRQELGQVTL
UniProt P09036: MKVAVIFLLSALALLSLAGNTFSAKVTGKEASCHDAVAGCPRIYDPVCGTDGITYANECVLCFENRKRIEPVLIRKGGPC
UniProt P04184: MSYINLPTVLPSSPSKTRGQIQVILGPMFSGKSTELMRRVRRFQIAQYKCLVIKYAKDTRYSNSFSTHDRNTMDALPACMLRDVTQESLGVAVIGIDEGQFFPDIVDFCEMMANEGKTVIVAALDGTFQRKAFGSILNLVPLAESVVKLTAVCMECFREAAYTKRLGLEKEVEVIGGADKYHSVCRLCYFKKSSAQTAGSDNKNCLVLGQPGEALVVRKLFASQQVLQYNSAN
UniProt P0CL69: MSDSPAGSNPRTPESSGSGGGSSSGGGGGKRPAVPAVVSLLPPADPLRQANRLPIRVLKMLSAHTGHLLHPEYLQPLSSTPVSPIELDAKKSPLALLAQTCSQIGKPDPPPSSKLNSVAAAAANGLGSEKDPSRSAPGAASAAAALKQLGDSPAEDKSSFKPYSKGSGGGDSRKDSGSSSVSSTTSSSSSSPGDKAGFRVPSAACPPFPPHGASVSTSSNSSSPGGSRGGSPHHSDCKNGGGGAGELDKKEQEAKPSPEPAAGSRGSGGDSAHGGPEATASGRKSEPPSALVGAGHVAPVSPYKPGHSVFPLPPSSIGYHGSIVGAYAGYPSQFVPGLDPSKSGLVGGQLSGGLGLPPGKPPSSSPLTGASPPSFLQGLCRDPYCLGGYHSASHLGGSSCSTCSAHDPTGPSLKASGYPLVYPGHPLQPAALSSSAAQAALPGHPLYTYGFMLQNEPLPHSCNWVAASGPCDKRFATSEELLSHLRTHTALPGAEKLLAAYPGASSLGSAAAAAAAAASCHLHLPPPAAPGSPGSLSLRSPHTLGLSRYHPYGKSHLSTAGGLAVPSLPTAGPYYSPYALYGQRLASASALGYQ
UniProt P0C027: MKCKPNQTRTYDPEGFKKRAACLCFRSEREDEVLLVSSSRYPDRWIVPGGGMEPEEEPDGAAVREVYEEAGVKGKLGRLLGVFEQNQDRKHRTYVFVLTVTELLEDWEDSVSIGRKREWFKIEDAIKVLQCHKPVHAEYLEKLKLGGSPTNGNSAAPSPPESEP
UniProt P01872: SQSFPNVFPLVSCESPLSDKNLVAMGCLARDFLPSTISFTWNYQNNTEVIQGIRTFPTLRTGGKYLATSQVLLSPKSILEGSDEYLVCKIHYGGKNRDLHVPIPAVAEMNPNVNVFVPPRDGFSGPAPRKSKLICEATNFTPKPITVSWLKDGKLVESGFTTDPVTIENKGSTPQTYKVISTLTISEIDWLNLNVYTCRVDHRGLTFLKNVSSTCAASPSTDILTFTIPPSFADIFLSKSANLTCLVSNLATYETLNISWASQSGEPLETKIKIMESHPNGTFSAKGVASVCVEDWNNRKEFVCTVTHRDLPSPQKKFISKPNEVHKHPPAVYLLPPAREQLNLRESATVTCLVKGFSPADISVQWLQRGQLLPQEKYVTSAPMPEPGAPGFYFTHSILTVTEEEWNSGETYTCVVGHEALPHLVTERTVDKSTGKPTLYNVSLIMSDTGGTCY
UniProt P08003: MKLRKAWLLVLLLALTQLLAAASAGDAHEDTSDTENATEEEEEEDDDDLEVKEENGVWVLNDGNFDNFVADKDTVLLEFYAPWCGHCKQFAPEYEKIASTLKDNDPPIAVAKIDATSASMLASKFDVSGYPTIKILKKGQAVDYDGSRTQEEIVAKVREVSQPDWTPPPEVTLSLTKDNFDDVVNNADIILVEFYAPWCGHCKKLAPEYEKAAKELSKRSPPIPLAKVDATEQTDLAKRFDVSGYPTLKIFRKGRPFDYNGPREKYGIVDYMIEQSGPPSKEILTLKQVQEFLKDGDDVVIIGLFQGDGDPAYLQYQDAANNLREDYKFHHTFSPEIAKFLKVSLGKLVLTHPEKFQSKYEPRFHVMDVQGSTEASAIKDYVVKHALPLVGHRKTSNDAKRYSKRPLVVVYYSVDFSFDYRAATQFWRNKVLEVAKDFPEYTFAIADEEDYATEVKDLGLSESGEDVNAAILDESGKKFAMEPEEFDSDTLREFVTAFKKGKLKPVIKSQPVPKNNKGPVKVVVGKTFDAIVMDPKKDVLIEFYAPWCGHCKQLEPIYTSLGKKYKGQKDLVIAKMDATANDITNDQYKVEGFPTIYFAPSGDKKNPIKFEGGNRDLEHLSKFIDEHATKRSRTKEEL
UniProt P03893: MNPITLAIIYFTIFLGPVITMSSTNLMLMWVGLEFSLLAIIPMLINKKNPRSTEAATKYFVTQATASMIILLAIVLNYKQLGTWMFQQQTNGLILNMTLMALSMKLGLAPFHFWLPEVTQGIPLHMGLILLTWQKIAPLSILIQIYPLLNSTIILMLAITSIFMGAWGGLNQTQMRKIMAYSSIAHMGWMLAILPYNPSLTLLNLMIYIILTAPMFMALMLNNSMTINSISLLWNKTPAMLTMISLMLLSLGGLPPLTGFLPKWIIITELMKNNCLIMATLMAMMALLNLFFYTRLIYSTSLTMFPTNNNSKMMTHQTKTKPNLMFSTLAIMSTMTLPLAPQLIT
UniProt P08752, whole entry: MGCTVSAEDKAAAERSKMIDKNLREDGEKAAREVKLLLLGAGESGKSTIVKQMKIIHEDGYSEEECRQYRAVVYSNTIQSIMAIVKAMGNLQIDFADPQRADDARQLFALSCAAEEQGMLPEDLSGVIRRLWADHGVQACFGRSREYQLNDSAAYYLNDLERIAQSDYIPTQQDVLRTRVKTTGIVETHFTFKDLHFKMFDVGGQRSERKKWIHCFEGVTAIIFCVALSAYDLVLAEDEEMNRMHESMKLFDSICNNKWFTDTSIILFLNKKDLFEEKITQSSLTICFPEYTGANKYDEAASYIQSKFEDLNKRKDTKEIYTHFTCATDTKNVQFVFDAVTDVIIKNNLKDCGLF
UniProt P09926: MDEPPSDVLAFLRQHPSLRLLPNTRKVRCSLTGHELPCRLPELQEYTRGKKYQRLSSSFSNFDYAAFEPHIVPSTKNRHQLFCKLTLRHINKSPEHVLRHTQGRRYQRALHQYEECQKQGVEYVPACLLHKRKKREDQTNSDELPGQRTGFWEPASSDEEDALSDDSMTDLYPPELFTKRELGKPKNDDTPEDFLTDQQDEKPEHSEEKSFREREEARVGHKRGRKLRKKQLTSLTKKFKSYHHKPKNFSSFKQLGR

What follows are targets tested with CN[C@@H]1C[C@H]2O[C@@](C)([C@@H]1OC)n1c3ccccc3c3c4c(c5c6ccccc6n2c5c31)C(=O)NC4 [staurosporine] (assay: log2 fold change of tryptic peptide abundance, ligand vs vehicle (limited proteolysis) (log2 ratio); higher = more trypsin-susceptible (destabilized)). Conditions: ligand concentration: 20 uM; sample: mouse liver crude lysate; replicate design: treated separately.

Q: Which log2 fold change does the source give for “UniProt P01898 (peptide sequence: YFETSVSRPGLGEPR, peptide start residue: 31)” here?
A: -0.0965

Q: For “UniProt P06795 (peptide sequence: STVVQLLER, peptide start residue: 1073)”, which log2 fold change is on record?
A: -0.969

Q: How did the log2 fold change turn out when “UniProt P12382 (peptide sequence: KVVAFSPVTELKK, peptide start residue: 715)” was run?
A: -0.379

Q: Which log2 fold change does the source give for “UniProt P09450 (peptide sequence: AENAGLSSAAGLLR, peptide start residue: 302)” here?
A: 0.471

Q: How did the log2 fold change turn out when “UniProt P10078 (peptide sequence: THTGEKPYECK, peptide start residue: 379)” was run?
A: -0.294

Q: For “UniProt O89110 (peptide sequence: GTDCDKEALSK, peptide start residue: 264)”, which log2 fold change is on record?
A: -0.265

Q: “UniProt P12246 (peptide sequence: GRDNELLIYK, peptide start residue: 76)” was tested. Which log2 fold change did it give?
A: 0.233

Q: “UniProt P05367 (peptide sequence: ESFQEFFGR, peptide start residue: 81)” was tested. Which log2 fold change did it give?
A: 0.0656

Q: With “UniProt P08071 (peptide sequence: SCHTGIGR, peptide start residue: 132)” as the target, how does the log2 fold change read?
A: 0.266

Q: Which log2 fold change does the source give for “UniProt P08122 (peptide sequence: SVSIGYLLVK, peptide start residue: 1480)” here?
A: 0.484

Q: How did the log2 fold change turn out when “UniProt O88895 (peptide sequence: QTIFENLK, peptide start residue: 360)” was run?
A: -0.246

Q: How did the log2 fold change turn out when “UniProt P04441 (peptide sequence: DLISNHEQLPILGNRPR, peptide start residue: 6)” was run?
A: 0.223

Q: For “UniProt P0CG14 (peptide sequence: LGGLPGPGPMANPR, peptide start residue: 139)”, which log2 fold change is on record?
A: 0.109

Q: With “UniProt P09036 (peptide sequence: VTGKEASCHDAVAGCPR, peptide start residue: 26)” as the target, how does the log2 fold change read?
A: -0.54

Q: With “UniProt P04184 (peptide sequence: YSNSFSTHDR, peptide start residue: 61)” as the target, how does the log2 fold change read?
A: 0.089

Q: Which log2 fold change does the source give for “UniProt O88974 (peptide sequence: KKQLAELETWVLQK, peptide start residue: 58)” here?
A: 0.5

Q: How did the log2 fold change turn out when “UniProt P00493 (peptide sequence: VASLLVKR, peptide start residue: 160)” was run?
A: -1.22

Q: With “UniProt P00329 (peptide sequence: SIRTVLTF, peptide start residue: 368)” as the target, how does the log2 fold change read?
A: 0.404

Q: How did the log2 fold change turn out when “UniProt P0CL69 (peptide sequence: LNSVAAAAANGLGSEKDPSR, peptide start residue: 115)” was run?
A: -0.27

Q: How did the log2 fold change turn out when “UniProt P0C027 (peptide sequence: VLQCHKPVHAEYLEK, peptide start residue: 127)” was run?
A: -0.162

Q: Which log2 fold change does the source give for “UniProt P07091 (peptide sequence: ELPSFLGKR, peptide start residue: 41)” here?
A: 0.139

Q: With “UniProt P01872 (peptide sequence: YLATSQVLLSPK, peptide start residue: 65)” as the target, how does the log2 fold change read?
A: -0.108

Q: For “UniProt P13020 (peptide sequence: SGALNSNDAFVLK, peptide start residue: 583)”, which log2 fold change is on record?
A: 0.266

Q: How did the log2 fold change turn out when “UniProt P08003 (peptide sequence: FIDEHATK, peptide start residue: 623)” was run?
A: -0.295

Q: “UniProt P03893 (peptide sequence: MMTHQTK, peptide start residue: 313)” was tested. Which log2 fold change did it give?
A: 0.0455

Q: With “UniProt P07901 (peptide sequence: KTKFENLCK, peptide start residue: 566)” as the target, how does the log2 fold change read?
A: -0.727

Q: How did the log2 fold change turn out when “UniProt P08752 (peptide sequence: YDEAASYIQSK, peptide start residue: 297)” was run?
A: 0.388

Q: With “UniProt P11862 (peptide sequence: EITAETFMEK, peptide start residue: 52)” as the target, how does the log2 fold change read?
A: 0.188

Q: With “UniProt P06909 (peptide sequence: ITCYMGK, peptide start residue: 918)” as the target, how does the log2 fold change read?
A: -0.274

Q: “UniProt P09926 (peptide sequence: QGVEYVPACLLHK, peptide start residue: 119)” was tested. Which log2 fold change did it give?
A: 0.26

Q: How did the log2 fold change turn out when “UniProt P05064 (peptide sequence: ADDGRPFPQVIK, peptide start residue: 88)” was run?
A: 0.437
